Publication doi:10.1101/2025.01.07.631699

Sequences of proteins named here, by UniProt entry; tags and fusion partners are left off.
UniProt P48727: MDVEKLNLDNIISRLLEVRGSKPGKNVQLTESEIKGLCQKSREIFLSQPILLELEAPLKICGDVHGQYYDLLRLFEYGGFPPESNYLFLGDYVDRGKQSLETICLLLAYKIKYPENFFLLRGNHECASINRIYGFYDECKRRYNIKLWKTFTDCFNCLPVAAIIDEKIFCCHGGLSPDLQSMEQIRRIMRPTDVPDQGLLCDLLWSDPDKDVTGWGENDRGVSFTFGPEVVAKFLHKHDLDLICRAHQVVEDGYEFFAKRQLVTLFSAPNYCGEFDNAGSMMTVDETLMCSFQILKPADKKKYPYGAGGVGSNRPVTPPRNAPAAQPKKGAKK

Molecular target: mNeonGreen tagged GSP-2 (C. elegans) (UniProt P48727)
Experiment: affinity purification with mass spectrometry; mNeonGreen-Trap agarose beads with about 3 mg embryonic extract of the mNG::gsp-2 strain, 4°C for 1.5 h; IP buffer 100 mM KCl, 50 mM Tris pH 7.5, 1 mM MgCl2, 1 mM DTT, 5% glycerol, 0.2% NP-40, 1 mM EDTA; N2 strain as control; triplicate; DIA mass spectrometry

| binding | Binder |
| --- | --- |
| binds | SDS-22 (protein, UniProt P45969 1-326) MSNDKSAEVVVLPRENDEESKEPVLKNQFDLSTFDIDSPEIDLTHTRADHIPDLTGFPKIEELRMRNNLLVSISPTISSLVTLTSLDLYENQLTEISHLESLVNLVSLDLSYNRIRQINGLDKLTKLETLYLVSNKIEKIENLEALTQLKLLELGDNRIKKIENIGHLVNLDELFIGKNKIRQLEGVETLQKLSVLSLPGNRIVKIENVEQLNNLKELYLSDQGLQDIHGVEPLTNLLLLDVANNEIKTFSGVERLESLNDFWANDNKVESFSEIEQLSKLKGLQTVYLERNPFYFNDTNQYRRKVMMTLTQVTQIDATTCRKPIE |
| binds | APE-1 (protein, UniProt Q9XVN3 1-769) MVTTSSGGGIGYPANNGVTQVSLIHSSDSVRTVSTAPIYRPTSSMASTMAHKSSTAPFISANQRMSKPPVRVVAQPPPPHPQALSQQYHQQNPMMMYSAPNTRPHVIPTMQVQPTMAAQIKRNNPVNAQFQNPSEMIADYGVKPQSVEMVQRVRAVRRQVADEETELRRLRELEHETAQLQNKNYGRERELNVQGSMLKEAQLELRNASMRAQSLNKHLEEMYRRRQTAAAAALVEQRKMQQHQILLARAANQVSTQEVIRPRASVEPFQVNNTQQQQPSPQMMKSEEFSEKRDLNGQTGSYDAIDGSGDHQKIPTEPSYLAPCKENQQKYSELSKMASTDPHSNHSSPSTSSQKAPTLITFSPPSFEQKINSSTMTRDSPFVERPTSFGDSLDESRLRSGKTDLVSLRSDSLKATKRRSWAASEGTSMSEAEMIHRLLDEQRRGRSHFIPQLPTSQEEPSAITSETYAEEVVNSESKQVATSSDSTNNLELPTEQMVLGSDTTTEEDASSCSTRSDDGQNLEMEVAIERRTVKGILRRPNEKMNKGRIEFDPLALLLDAALEGELDLVRSSASKLTDVSQANDEGITALHNAICAGHYEIVRFLIENDADVNAQDSDGWTPLHCAASCNNLPMVRQLVEGGGCVLASTLSDMETPVEKCEEDEDGYDGCLKYLSAAHNSTGSINTGKVYAAYGYEAAFEDELSFDAGDELTVIEKDKVDKNWWTCEKNNGEKGQVPRTYLALYPSLKYRKKLNFVMFDLPLESNNNVE |

These are yes or no findings as the source states them, for the method shown. In cells and extracts the contact can be indirect. These calls come from enrichment with a bait or labelling near it, and not all partners need be listed.
